# Reference: PubChem BioAssay (EPA / NIEHS)
# Protein sequences, listed by entry. Tags and fused reporters are not part of them. Lines headed by an entry give the natural chain unless they say otherwise; changes in a name come on top.
# UniProt P56817: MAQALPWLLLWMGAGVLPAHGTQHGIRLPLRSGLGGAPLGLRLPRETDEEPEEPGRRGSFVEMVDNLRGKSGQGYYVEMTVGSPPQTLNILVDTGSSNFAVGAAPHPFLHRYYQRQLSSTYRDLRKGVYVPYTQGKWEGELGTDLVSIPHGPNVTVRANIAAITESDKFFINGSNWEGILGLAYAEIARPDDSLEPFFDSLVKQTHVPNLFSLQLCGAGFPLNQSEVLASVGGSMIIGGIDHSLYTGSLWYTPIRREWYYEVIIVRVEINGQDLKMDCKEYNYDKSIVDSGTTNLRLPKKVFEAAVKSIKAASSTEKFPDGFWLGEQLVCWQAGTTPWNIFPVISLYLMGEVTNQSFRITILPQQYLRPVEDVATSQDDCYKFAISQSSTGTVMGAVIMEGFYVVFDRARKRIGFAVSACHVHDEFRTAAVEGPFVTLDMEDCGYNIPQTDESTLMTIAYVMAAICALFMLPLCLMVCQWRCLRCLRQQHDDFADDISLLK
# UniProt Q13464: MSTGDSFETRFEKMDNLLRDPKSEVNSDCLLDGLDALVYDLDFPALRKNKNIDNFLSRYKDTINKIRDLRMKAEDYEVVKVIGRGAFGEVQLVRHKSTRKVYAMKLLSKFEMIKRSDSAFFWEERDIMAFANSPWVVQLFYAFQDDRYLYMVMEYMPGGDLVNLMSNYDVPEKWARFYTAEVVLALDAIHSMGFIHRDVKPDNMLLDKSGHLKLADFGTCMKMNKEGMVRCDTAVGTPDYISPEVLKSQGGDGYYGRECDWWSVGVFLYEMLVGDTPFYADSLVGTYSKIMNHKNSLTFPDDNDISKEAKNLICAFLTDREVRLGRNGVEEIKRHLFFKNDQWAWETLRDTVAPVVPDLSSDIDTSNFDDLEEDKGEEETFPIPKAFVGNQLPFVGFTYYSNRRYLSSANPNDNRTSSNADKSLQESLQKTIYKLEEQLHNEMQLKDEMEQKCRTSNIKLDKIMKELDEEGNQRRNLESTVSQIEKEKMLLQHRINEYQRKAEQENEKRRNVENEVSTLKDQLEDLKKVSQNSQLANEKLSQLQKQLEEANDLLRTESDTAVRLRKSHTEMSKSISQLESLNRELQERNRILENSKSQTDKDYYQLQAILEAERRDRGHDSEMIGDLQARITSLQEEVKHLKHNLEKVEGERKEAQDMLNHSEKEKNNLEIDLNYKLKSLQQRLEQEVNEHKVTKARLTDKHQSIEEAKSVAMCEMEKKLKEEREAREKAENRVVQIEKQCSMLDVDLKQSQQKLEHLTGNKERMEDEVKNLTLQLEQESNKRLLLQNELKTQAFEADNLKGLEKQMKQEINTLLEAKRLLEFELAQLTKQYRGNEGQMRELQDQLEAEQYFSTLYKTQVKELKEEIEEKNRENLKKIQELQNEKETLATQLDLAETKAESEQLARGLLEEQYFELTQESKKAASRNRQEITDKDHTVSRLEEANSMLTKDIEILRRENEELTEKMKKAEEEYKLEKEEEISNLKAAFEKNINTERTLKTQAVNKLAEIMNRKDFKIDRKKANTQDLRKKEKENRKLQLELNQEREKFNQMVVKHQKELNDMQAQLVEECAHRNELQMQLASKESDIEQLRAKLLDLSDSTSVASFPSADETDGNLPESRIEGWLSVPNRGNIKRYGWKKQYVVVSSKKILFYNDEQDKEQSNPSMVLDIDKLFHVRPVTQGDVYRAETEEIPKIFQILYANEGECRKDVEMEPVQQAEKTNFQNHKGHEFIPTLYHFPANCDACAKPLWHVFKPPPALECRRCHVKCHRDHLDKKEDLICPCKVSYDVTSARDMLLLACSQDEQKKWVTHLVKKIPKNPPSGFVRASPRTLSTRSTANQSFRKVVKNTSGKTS
# UniProt P62813: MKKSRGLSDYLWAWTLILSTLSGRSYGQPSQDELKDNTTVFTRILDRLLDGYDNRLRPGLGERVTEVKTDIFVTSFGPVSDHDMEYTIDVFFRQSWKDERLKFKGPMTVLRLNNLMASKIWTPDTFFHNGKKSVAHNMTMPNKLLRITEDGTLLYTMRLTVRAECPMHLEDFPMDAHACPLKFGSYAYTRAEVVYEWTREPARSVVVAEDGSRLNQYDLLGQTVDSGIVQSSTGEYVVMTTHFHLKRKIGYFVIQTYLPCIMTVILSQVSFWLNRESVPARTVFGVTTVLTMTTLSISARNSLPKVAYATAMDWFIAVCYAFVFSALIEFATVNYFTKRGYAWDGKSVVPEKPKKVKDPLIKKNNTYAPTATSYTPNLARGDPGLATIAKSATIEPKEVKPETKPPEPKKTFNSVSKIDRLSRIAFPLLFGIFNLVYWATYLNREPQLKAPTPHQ
# UniProt P37231: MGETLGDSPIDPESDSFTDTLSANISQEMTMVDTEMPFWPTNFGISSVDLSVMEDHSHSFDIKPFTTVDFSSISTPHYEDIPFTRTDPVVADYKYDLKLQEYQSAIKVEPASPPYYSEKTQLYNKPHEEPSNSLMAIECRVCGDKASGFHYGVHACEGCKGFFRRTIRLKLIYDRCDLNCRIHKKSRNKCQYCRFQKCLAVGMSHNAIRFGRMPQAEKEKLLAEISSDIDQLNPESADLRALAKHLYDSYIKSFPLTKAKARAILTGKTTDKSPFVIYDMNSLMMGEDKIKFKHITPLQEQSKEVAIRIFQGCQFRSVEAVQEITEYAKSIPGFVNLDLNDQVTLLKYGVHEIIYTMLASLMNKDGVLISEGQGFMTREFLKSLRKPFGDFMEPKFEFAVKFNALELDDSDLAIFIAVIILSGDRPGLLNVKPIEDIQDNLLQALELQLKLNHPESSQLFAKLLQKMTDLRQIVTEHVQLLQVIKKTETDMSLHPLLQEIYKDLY
# UniProt Q92731, whole entry, looked up: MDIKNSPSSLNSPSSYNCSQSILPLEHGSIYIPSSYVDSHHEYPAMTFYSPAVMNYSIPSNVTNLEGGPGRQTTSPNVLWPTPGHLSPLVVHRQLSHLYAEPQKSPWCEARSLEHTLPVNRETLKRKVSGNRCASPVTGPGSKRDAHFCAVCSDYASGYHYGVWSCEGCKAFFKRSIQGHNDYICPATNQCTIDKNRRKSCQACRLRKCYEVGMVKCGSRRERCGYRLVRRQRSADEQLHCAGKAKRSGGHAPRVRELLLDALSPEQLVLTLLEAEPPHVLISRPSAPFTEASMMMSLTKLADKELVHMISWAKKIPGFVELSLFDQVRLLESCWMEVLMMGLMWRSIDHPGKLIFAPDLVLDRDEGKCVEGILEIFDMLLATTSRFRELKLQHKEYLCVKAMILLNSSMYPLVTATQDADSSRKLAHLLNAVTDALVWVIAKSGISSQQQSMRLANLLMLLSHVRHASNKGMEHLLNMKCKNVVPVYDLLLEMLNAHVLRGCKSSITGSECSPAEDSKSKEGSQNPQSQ
# UniProt Q08E50: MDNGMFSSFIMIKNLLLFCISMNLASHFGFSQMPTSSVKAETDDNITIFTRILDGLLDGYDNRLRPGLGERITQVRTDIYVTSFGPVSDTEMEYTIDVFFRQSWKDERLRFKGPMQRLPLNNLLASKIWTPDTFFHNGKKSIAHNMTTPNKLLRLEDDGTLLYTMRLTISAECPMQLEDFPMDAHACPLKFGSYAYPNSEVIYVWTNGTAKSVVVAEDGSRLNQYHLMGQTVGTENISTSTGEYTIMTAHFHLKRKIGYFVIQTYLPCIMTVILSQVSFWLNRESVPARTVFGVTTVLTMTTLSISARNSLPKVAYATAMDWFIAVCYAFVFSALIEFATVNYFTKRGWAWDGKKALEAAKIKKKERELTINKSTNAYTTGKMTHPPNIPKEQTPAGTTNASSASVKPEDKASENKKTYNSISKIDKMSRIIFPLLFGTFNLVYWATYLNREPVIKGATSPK
# UniProt P03372, whole entry, looked up: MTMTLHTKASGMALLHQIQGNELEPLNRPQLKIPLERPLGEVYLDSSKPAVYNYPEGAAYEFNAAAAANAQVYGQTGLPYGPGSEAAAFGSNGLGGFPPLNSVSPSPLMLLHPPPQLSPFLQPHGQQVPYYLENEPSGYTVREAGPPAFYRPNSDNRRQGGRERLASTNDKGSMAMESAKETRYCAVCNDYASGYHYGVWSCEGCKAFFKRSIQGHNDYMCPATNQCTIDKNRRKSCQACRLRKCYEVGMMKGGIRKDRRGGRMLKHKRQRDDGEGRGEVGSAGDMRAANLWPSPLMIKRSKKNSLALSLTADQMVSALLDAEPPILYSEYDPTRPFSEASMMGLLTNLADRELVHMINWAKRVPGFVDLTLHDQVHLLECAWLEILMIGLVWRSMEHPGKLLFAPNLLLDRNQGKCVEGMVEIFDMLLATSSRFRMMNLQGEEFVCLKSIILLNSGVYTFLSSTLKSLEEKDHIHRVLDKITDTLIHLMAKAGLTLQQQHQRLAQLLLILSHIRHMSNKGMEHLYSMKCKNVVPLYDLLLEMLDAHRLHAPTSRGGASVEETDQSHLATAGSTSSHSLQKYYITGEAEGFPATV
# UniProt P10276, whole entry, looked up: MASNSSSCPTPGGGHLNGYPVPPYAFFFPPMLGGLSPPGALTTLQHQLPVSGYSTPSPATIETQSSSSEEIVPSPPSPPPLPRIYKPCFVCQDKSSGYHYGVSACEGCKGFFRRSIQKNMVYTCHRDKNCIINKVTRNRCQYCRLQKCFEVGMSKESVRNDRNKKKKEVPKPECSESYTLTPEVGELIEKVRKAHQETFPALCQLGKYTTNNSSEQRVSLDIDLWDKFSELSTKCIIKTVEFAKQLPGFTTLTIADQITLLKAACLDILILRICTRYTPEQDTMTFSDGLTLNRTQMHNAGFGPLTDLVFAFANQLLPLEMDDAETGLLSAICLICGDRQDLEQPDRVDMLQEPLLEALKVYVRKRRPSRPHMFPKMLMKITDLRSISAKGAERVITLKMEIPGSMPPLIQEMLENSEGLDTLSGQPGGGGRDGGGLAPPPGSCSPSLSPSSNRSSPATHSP
# UniProt P08684, whole entry, looked up: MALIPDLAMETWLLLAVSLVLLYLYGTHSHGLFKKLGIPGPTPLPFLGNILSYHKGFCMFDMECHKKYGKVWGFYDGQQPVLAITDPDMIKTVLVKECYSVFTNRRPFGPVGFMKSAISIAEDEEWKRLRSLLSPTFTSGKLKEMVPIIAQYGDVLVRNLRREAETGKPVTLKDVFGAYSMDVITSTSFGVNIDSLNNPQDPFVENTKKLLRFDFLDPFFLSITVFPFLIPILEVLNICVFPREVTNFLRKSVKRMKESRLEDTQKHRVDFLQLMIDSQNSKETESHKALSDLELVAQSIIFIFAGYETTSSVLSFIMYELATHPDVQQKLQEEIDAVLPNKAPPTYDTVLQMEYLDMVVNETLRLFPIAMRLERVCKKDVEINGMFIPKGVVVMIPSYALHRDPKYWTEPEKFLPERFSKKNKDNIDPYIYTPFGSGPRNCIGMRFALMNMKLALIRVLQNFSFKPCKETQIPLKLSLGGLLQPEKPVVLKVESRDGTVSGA
# UniProt P10828: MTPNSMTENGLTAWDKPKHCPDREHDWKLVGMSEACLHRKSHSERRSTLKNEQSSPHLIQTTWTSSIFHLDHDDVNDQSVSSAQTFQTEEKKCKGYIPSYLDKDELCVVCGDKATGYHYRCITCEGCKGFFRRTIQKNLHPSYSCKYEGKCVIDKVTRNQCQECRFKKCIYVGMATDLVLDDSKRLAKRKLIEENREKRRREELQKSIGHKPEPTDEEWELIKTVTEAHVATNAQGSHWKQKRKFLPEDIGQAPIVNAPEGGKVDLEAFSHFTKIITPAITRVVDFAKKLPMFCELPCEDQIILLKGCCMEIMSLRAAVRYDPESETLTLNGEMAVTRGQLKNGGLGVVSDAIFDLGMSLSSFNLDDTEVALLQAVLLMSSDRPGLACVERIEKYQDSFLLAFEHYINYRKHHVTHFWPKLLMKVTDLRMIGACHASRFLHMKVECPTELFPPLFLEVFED
# UniProt P14780: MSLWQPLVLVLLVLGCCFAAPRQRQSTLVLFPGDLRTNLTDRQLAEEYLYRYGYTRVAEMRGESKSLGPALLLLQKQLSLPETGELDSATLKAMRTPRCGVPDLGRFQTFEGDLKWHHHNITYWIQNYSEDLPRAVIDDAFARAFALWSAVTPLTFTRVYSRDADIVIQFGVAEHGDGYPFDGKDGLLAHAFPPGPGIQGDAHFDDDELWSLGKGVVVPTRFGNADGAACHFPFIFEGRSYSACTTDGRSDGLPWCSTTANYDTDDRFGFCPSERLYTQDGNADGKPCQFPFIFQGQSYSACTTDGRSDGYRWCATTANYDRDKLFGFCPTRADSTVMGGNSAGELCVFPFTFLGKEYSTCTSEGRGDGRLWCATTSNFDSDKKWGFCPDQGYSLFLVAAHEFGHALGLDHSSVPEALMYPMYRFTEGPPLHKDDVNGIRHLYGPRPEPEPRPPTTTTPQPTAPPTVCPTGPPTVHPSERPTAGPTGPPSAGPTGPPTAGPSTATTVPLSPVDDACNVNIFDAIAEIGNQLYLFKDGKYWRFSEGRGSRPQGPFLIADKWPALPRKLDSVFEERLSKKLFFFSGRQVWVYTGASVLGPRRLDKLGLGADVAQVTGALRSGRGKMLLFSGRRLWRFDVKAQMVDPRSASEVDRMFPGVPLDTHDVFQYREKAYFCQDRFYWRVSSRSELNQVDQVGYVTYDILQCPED
# “And” between values parts separate entries of the source, which are not always exact repeats. Equal entries are not always repeated. This list was built around the results that the source calls inconclusive (neither active nor inactive); the mix of calls is not that of the screen. For part of these data: Where the call is inconclusive, the potency comes from a doubtful curve fit. The source made the active and inactive calls. Rule for the calls: active = hit-call score of the fitted dose curve at least 0.9, where 1 is the maximum; inconclusive = response in the unintended direction; inactive = score below 0.9.
# How the values were obtained:
# [1] = test system: frog Estrogen Receptor (ESR1), gene 398734; experiment: ATG_frER1_XSP1: Attagene TRANS-FACTORIAL Multi-Species (XSP1) HepG2 Assay for frog Estrogen Receptor (ESR1) (AID 2283777)
# Summary of the method: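 Human hepatoma HepG2 cells carried transiently transfected multiplexed Gal4-driven reporters and were exposed to test chemicals for 24 hours. Transcripts were quantified by fluorescent RT-PCR with capillary electrophoresis, referenced to DMSO.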
# [2] = test system: frog Estrogen Receptor (ER), gene 398734; experiment: ATG_frER1_XSP2: Attagene TRANS-FACTORIAL Multi-Species (XSP2) HepG2 Assay for frog Estrogen Receptor (ER) (AID 2283821);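 note: hits raise reporter mRNA above DMSO baseline so potency means agonist or activator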
# Summary of the method: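 Steps: transfect HepG2 with multiple reporter transcription units; treat with chemical for 24 h; isolate RNA, reverse-transcribe, PCR-amplify, label with 6-FAM, digest with HpaI; resolve fragments by capillary electrophoresis. Signal is scored against DMSO.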
# [3] = target: human Beta-secretase (BACE), BACE1 (gene 23621) (UniProt P56817); experiment: NVS_ENZ_hBACE: NovaScreen (NVS) Enzymatic Assay for human Beta-secretase (BACE) (AID 2283140);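 note: hits are inhibitors that reduce fluorescent substrate signal versus DMSO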
# Summary of the method: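 Recombinant BACE1 (SF9 extract) incubated with compound and fluorescent substrate, 1 h. Plates carried positive and DMSO negative controls. Initial single dose 25 uM, duplicate; confirmation by concentration series.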
# [4] = target: human Rho Associated Coiled-coil Containing Protein Kinase 1 (ROCK1), ROCK1 (gene 6093) (UniProt Q13464); experiment: NVS_ENZ_hROCK1: NovaScreen (NVS) Enzymatic Assay for human Rho Associated Coiled-coil Containing Protein Kinase 1 (ROCK1) (AID 2283214)
# Summary of the method: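 Cell-free recombinant human ROCK1 activity assay; fluorescent substrate and product separated by electrophoretic mobility shift, read 1 h after dosing. Screened in duplicate at 25 uM; loss of signal versus DMSO baseline scored as inhibition.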
# [5] = target: chicken Estrogen Receptor (ESR1), ESR1 (gene 396099) (UniProt P06212); experiment: ATG_chERa_XSP1: Attagene TRANS-FACTORIAL Multi-Species (XSP1) HepG2 Assay for chicken Estrogen Receptor (ESR1) (AID 2283779)
# Summary of the method: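 Human liver HepG2, transient MRTU transfection (NR-Gal4 chimeras, GAL4-UAS reporters); 24 h compound exposure; 3 nM 6-alpha-fluorotestosterone in medium. Total RNA → RT-PCR → 6-FAM primer extension → HpaI → CE. Positive direction vs DMSO baseline.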
# [6] = test system: turtle Estrogen Receptor (ESR1), gene 101933533; experiment: ATG_trERa_XSP1: Attagene TRANS-FACTORIAL Multi-Species (XSP1) HepG2 Assay for turtle Estrogen Receptor (ESR1) (AID 2283781)
# Summary of the method: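 Activity was taken as gain of reporter transcript over DMSO controls. HepG2 cells carrying GAL4-UAS-driven reporters were exposed for 24 h before RNA was extracted and reporter sequences were measured by fluorescence after capillary separation.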
# [7] = target: chicken Estrogen Receptor (ERa), ESR1 (gene 396099) (UniProt P06212); experiment: ATG_chERa_XSP2: Attagene TRANS-FACTORIAL Multi-Species (XSP2) HepG2 Assay for chicken Estrogen Receptor (ERa) (AID 2283817);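 note: actives raise reporter signal above DMSO so AC50 reflects ER activation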
# Summary of the method: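 Transient MRTU transfection of HepG2 → 24 h chemical dosing → TriZol RNA, oligo(dT) RT → PCR, 6-FAM primer extension, HpaI digest → CE quantitation of chicken ERa-Gal4-driven reporter mRNA. Positive direction vs DMSO.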
# [8] = NVS_IC_rCaBTZCHL: NovaScreen (NVS) Ion Channel Assay for Calcium Channel, Type L, Benzothiazepine Site (CaBTZCHL) (AID 2283337)
# Summary of the method: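 Competitive displacement of a site-specific radioligand from rat cortex membranes, measured as signal loss against DMSO baseline by filter radiodetection after 1.5 h. Single-point 25 uM primary screen.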
# [9] = target: rat Gamma-Aminobutyric Acid Type A Receptor, Non-Selective (GABAR-NonSelective), Gabra1 (gene 29705) (UniProt P62813); experiment: NVS_LGIC_rGABAR_NonSelective: NovaScreen (NVS) Ligand-Gated Ion Channel Assay for rat Gamma-Aminobutyric Acid Type A Receptor, Non-Selective (GABAR-NonSelective) (AID 2283326)
# Summary of the method: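 Radioligand displacement on rat whole-brain extract, 1 h, filter scintillation readout; signal loss fitted versus DMSO. Primary screen in duplicate at 25 uM; hits (e.g. ≥30% inhibition) retested in concentration-response up to 50 uM.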
# [10] = target: Peroxisome proliferator-activated receptor gamma (Homo sapiens) (UniProt P37231); experiment: OT_PPARg_PPARgSRC1_1440: Odyssey Thera (OT) 24-hour Protein-Complementation Assay for Peroxisome Proliferator-activated Receptor Gamma/ SRC-1 Co-activator (AID 2283388);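 note: nuclear to cytoplasmic ratio of reconstituted Venus YFP fluorescence in fixed imaged cells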
# Summary of the method: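 Readout: nuclear-to-cytoplasmic 488 nm fluorescence ratio, ≥350 cells per image, 8 images per well, after 24 h compound exposure of HEK293T expressing PPARg/SRC-1 split-YFP fusions. Activity fitted in positive direction against DMSO.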
# [11] = target: Estrogen receptor beta (Homo sapiens) (UniProt Q92731); experiment: OT_ER_ERbERb_1440: Odyssey Thera (OT) 24-hour HEK293T Protein-Complementation Assay for Estrogen Receptor-beta/-beta Homodimer (AID 2283380);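 note: fluorescence gain from ER beta LBD homodimer complementation read by laser scanning cytometry; scored as signal increase over DMSO baseline for both agonists and antagonists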
# Summary of the method: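 Fluorescence increase, nuclear for agonists or whole-cell for antagonists, relative to DMSO vehicle, quantified by laser scanning cytometer after fixation and Draq5 staining. Readout from 24 h treatment of HEK293T cells carrying complementation-paired ER beta LBD (aa 310-547).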
# [12] = target: bovine Gamma-Aminobutyric Acid Type A Receptor BDZ, alpha 5 site (GABARa5), GABRA5 (gene 523515) (UniProt Q08E50); experiment: NVS_LGIC_bGABARa5: NovaScreen (NVS) Ligand-Gated Ion Channel Assay for bovine Gamma-Aminobutyric Acid Type A Receptor BDZ, alpha 5 site (GABARa5) (AID 2283323)
# Summary of the method: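 Radioligand competitive displacement binding on bovine hippocampal membranes, read 1 hr after dosing by filter-based scintillation counting. Primary screen at 25 uM in duplicate; actives (e.g. ≥30% inhibition) then run in concentration-response up to 50 uM.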
# [13] = target: Estrogen receptor (Homo sapiens) (UniProt P03372); experiment: CCTE_Deisenroth_AIME_384WELL_LUC_Active: CCTE's 384-well Estrogen Receptor Transactivation Assay with AIME metabolic competence (ERTA luciferase; metabolism positive), Deisenroth Lab (AID 2284030)
# Summary of the method: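 Readout: bioluminescent luciferase induction in VM7Luc4E2 cells 24 hour after receiving medium from a 2 h rat hepatic S9 (induced, alginate microsphere) metabolism step. Concentrations 0.002 - 200 uM; activity scaled to 17beta-estradiol positive control.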
# [14] = target: Retinoic acid receptor alpha (Homo sapiens) (UniProt P10276); experiment: NVS_NR_hRARa_Agonist: NovaScreen (NVS) Nuclear Receptor Binding Assay for human Retinoic Acid Alpha Receptor Agonism (RAR) (AID 2283361)
# Summary of the method: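 Readout is time-resolved fluorescence resonance energy transfer after a 2 h exposure of cell-free extracted receptor protein. Initial testing used 25 uM in duplicate, with concentration-response follow-up for active chemicals.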
# [15] = target: human CYP2A6, CYP2A6 (gene 1548) (UniProt P11509); experiment: NVS_ADME_hCYP2A6: NovaScreen (NVS) CYP450-related Enzyme Activity (ADME) Assay for human CYP2A6 (AID 2283099)
# Summary of the method: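 Insect-cell-expressed human CYP2A6 enzyme activity measured by fluorescence intensity 0.5 hour post-dosing. Compounds screened at 10 uM in duplicate, then hits tested singly in concentration series (max 20 uM); acetonitrile baseline.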
# [16] = target: Cytochrome P450 3A4 (Homo sapiens) (UniProt P08684); experiment: NVS_ADME_hCYP3A4: NovaScreen (NVS) CYP450-related Enzyme Activity (ADME) Assay for human CYP3A4 (AID 2283110)
# Summary of the method: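 Compounds were first screened in duplicate at 10 uM against recombinant CYP3A4 produced in insect cells, then actives were run in concentration series. Enzyme activity was measured by fluorescence after 0.33 hour, with acetonitrile as baseline.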
# [17] = target: human Protein Tyrosine Phosphatase Non-receptor Type 4 (PTPN4), PTPN4 (gene 5775) (UniProt P29074); experiment: NVS_ENZ_hPTPN4: NovaScreen (NVS) Enzymatic Assay for human Protein Tyrosine Phosphatase Non-receptor Type 4 (PTPN4) (AID 2283208)
# Summary of the method: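 Cell-free assay of PTPN4 expressed in Sf9 cells, using a fluorescent substrate with product separated by mobility shift; read 1.33 h after dosing. Single-point screen at 25 uM, then concentration-response up to 50 uM. Loss of signal relative to DMSO.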
# THRB (gene 7068) = THRB (gene 7068) (UniProt P10828); experiment: TOX21_TRB_BLA_Agonist_Followup_ratio: Tox21 Thyroid Hormone Receptor beta Agonism Beta-lactamase (BLA) Follow-Up Assay, Ratio (AID 2283954)
# Summary of the method: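 Human TRβ LBD–GAL4 DBD fusion in GeneBLAzer UAS-bla HEK293T cells; 11 concentrations in triplicate, 18 h at 37°C/5% CO2, T3 as agonist control. CCF4-AM substrate 2 h at room temperature; 460:530 nm ratio fitted for gain of signal versus DMSO.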
# [18] = target: human Matrix Metalloproteinase-9 (MMP9), MMP9 (gene 4318) (UniProt P14780); experiment: NVS_ENZ_hMMP9: NovaScreen (NVS) Enzymatic Assay for human Matrix Metalloproteinase-9 (MMP9) (AID 2283190);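 note: cell-free recombinant MMP9 protease activity read by fluorescent substrate signal; active means inhibition seen as loss of fluorescence signal versus DMSO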
# Summary of the method: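 Inhibition was scored as loss of fluorescence signal against DMSO controls. The recombinant protease was exposed to chemicals for 1 hour before reading; initial testing used 25 uM in duplicate.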
structure (smiles),measurement,setting,value
O=P(Oc1ccccc1)(Oc1ccccc1)Oc1ccccc1,AC50,[1],inconclusive: 100 µM
same,AC50,[2],inconclusive: 100 µM
O=S(=O)(O)C(F)(F)C(F)(F)C(F)(F)C(F)(F)C(F)(F)C(F)(F)C(F)(F)C(F)(F)F,AC50,[3],active: 2.29 µM and active: 2.36 µM and active: 8.91 µM
same,AC50,[4],active: 39 µM
same,AC50,[5],inconclusive: 152 µM
same,AC50,[6],inconclusive: 140 µM
same,outcome,[7],inactive
CCCCN(CCCC)C(=S)[S-].CCCCN(CCCC)C(=S)[S-].[Ni+2],AC50,[8],inconclusive: 0.215 µM
C=CCC1=C(C)[C@@H](OC(=O)[C@@H]2[C@@H](C=C(C)C)C2(C)C)CC1=O,outcome,[9],inactive
CCCC1COC(Cn2cncn2)(c2ccc(Cl)cc2Cl)O1 (stereo not given),outcome,[6],inactive
CCOC(=O)C(O)(c1ccc(Cl)cc1)c1ccc(Cl)cc1,AC50,[10],inconclusive: 93 µM
CC(C)N(Cc1ccccc1)C(=O)C(C)(C)C,AC50,[11],active: 41.5 µM
CSC(=O)c1c(C(F)F)nc(C(F)(F)F)c(C(=O)SC)c1CC(C)C,AC50,[12],inconclusive: 0.138 µM
same,outcome,[5],inactive
CCOC1Oc2ccc(OS(C)(=O)=O)cc2C1(C)C (stereo not given),AC50,[13],inconclusive: 167 µM
Cc1nc(N(C)C)nc(OC(=O)N(C)C)c1C,AC50,[14],inconclusive: 25 µM
CCOP(=S)(OCC)O/N=C(\C#N)c1ccccc1,outcome,[2],inactive
C#CC(C)(C)NC(=O)c1cc(Cl)cc(Cl)c1,outcome,[1],inactive
COC(=O)N(C(=O)N1CO[C@@]2(C(=O)OC)Cc3cc(Cl)ccc3C2=N1)c1ccc(OC(F)(F)F)cc1,outcome,[3],inactive
same,AC50,[13],inconclusive: 100 µM
CN1COCN(Cc2cnc(Cl)s2)C1=N[N+](=O)[O-],AC50,[15],inconclusive: 0.0118 µM
O=C(O)c1nc(Cl)ccc1Cl,outcome,[16],inactive
same,AC50,[17],inconclusive: 25 µM
NNC(=S)NN,AC50,THRB (gene 7068),inconclusive: 38.1 µM
CC(C)(C)OOC(C)(C)CCC(C)(C)OOC(C)(C)C,AC50,[9],inconclusive: 25 µM
O=C(O)c1cc(Oc2ccc(C(F)(F)F)cc2Cl)ccc1[N+](=O)[O-],outcome,[18],inactive
O=C=Nc1ccccc1,AC50,[14],active: 9.8 µM
CC(C)C1(C)N=C(c2nc3ccccc3cc2C(=O)O)NC1=O (stereo not given),AC50,[12],inconclusive: 0.0371 µM
CCOc1nc(C(Cl)(Cl)Cl)ns1,outcome,[11],inactive
Cc1ccc(OP(=O)(Oc2ccc(C)cc2)Oc2ccc(C)cc2)cc1 (tested in a mixture with another compound),AC50,[8],inconclusive: 0.916 µM

# A different layout for some results above.
structure (smiles) | measurement | setting | value
CCCCN(CCCC)C(=S)[S-].CCCCN(CCCC)C(=S)[S-].[Ni+2] | AC50 | [8] | inconclusive: 0.215 µM
C=CCC1=C(C)[C@@H](OC(=O)[C@@H]2[C@@H](C=C(C)C)C2(C)C)CC1=O | outcome | [9] | inactive
CCCC1COC(Cn2cncn2)(c2ccc(Cl)cc2Cl)O1 (stereo not given) | outcome | [6] | inactive
CCOC(=O)C(O)(c1ccc(Cl)cc1)c1ccc(Cl)cc1 | AC50 | [10] | inconclusive: 93 µM
CC(C)N(Cc1ccccc1)C(=O)C(C)(C)C | AC50 | [11] | active: 41.5 µM
CSC(=O)c1c(C(F)F)nc(C(F)(F)F)c(C(=O)SC)c1CC(C)C | AC50 | [12] | inconclusive: 0.138 µM
same | outcome | [5] | inactive
